Results reported in PubChem BioAssay AID2283312 (EPA ToxCast).
The shares of active, inactive and inconclusive entries below differ from those in the screen. Potencies of inconclusive entries are doubtful fits and often do not repeat. Calls of active or inactive are those of the source. How the source made its calls: active means hit-call score of the fitted dose curve at least 0.9, where 1 is the maximum; inconclusive means response in the unintended direction; inactive means score below 0.9.

Sequences of proteins named here, by UniProt entry; tags and fusion partners are left off.
UniProt P30083, whole entry, looked up: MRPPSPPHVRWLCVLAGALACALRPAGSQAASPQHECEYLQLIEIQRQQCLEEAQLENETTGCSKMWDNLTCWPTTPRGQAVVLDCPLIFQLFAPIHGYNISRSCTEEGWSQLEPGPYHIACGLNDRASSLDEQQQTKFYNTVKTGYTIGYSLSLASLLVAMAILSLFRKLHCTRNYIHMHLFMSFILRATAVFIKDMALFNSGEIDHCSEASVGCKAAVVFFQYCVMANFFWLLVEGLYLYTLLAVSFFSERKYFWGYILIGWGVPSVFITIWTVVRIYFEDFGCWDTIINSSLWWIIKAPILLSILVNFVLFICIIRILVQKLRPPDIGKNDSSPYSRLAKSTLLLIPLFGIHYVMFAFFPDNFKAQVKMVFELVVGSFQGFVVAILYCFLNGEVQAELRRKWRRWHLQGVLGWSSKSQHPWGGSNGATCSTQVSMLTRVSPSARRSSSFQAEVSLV

Molecular target: rat Vasoactive Intestinal Peptide Receptor (VIP), Non-selective Binding, Vipr1 (gene 24875) (UniProt P30083)
Assay: NVS_GPCR_rVIP_NonSelective: NovaScreen (NVS) G Protein-Coupled Receptor Assay for rat Vasoactive Intestinal Peptide Receptor (VIP), Non-selective Binding
Procedure: NVS_GPCR_rVIP_NonSelective is a biochemical, single-readout assay that uses extracted gene-proteins from Rat forebrain membranes in a tissue-based cell-free assay. Measurements were taken 1 hour after chemical dosing in a 96-well plate.NVS_GPCR_rVIP_NonSelective is one of one assay component(s) measured or calculated from the NVS_GPCR_rVIP_NonSelective assay. It is designed to make measurements of radioligand binding, a form of binding reporter, as detected with scintillation counting signals by Filter-based radiodetection technology.Data from the assay component NVS_GPCR_rVIP_NonSelective was analyzed into 1 assay endpoint. This assay endpoint, NVS_GPCR_rVIP_NonSelective, was analyzed in the positive analysis fitting direction relative to DMSO as the negative control and baseline of activity. Using a type of binding reporter, loss-of-signal activity can be used to understand changes in the binding as they relate to the gene Vipr1. Furthermore, this assay endpoint can be referred to as a primary readout, because the performed assay has only produced 1 assay endpoint. To generalize the intended target to other relatable targets, this assay endpoint is annotated to the gpcr intended target family, where the subfamily is secretin receptor. […]

Compound: COCC(C)OCC(C)OCC(C)O (configuration not stated)
- outcome: inactive

Compound: Cc1c(C)c2c(c(C)c1O)CCC(C)(COc1ccc(CC3SC(=O)NC3=O)cc1)O2 (configuration not stated)
- AC50: inconclusive: 44.2 µM
